Values quoted from earlier work as cited in patent US20140314740A1, “COMPOSITIONS AND METHODS FOR THE PREVENTION OR TREATMENT OF DIABETIC COMPLICATIONS” (The Johns Hopkins University, priority 2011, published 2014).
At least one structure is not confirmed: it was looked up by name or label, or the drawing left a doubt.

Tested on: adenylate cyclase
Settings: literature statement; cited from earlier work

Question: Which adenylate cyclase stimulation does the source give for C=C[C@@]1(C)CC(=O)[C@]2(O)[C@@]3(C)[C@@H](O)CCC(C)(C)[C@@H]3[C@H](O)[C@H](OC(C)=O)[C@@]2(C)O1 [forskolin] here?
Answer: activate adenylate cyclase
